Record: PubChem BioAssay AID1259308 (NCATS, 2017)

Screen: 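Candidate targets for better recombinant protein yield in mammalian cells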 (primary screen)
Cell system: human HEK293 embryonic kidney cells stably expressing firefly luciferase (HEK-CMV-Luc2-Hygro)
Reagents: single siRNA against human genes, 0.8 pmol siRNA per well
Timing: 72 h
Detection: 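Reporter luminescence and viable-cell signal on separate replicate plates, given as percent of non-targeting control and median/MAD z-scores, plus per-cell luciferase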
Reading the numbers: total luciferase, z-score and total luciferase, % of control: higher = more reporter protein produced; luciferase per cell, z-score: higher = more reporter output per viable cell; viable cells, % of control: higher = more viable cells
Active means: 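An siRNA counts as active if its total luciferase robust z-score exceeds 3; genes with two or more such siRNAs out of three were retested with fresh siRNAs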
Calls: active = raised luciferase; inactive = no rise
The deposit covers about 59,000 reagents; below is an unselected part. About 1,510 of them (2.6%) were called active. 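Calls use total luciferase alone and ignore viability, so some active siRNAs may act by altering cell number.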

| target gene | PubChem SID | total luciferase, z-score | total luciferase, % of control | luciferase per cell, z-score | viable cells, % of control | Call |
| --- | --- | --- | --- | --- | --- | --- |
| CHRNA3 (GeneID 1136) | SID160743218 | 1.47 | 111 | 1.99 | 73.4 | inactive |
| CHRNA3 (GeneID 1136) | SID160743228 | 1.1 | 104 | 0.922 | 91 | inactive |
| CHRNA3 (GeneID 1136) | SID160743239 | -0.348 | 75 | -1.02 | 110 | inactive |
| DEFB113 (GeneID 245927) | SID160761960 | 0.538 | 92.6 | 0.406 | 93 | inactive |
| DEFB113 (GeneID 245927) | SID160761961 | 0.0819 | 83.5 | 1.07 | 70.3 | inactive |
| DEFB113 (GeneID 245927) | SID160761962 | 3.81 | 158 | 3.34 | 73.1 | active |
| CTPS1 (GeneID 1503) | SID160750481 | -0.856 | 64.9 | -0.781 | 89 | inactive |
| CTPS1 (GeneID 1503) | SID160750492 | 0.391 | 89.7 | -0.239 | 107 | inactive |
| CTPS1 (GeneID 1503) | SID160750503 | 2.22 | 126 | 1.47 | 95.6 | inactive |
| USP36 (GeneID 57602) | SID160746385 | 0.291 | 87.7 | -0.238 | 104 | inactive |
| USP36 (GeneID 57602) | SID160746386 | -0.324 | 75.4 | -0.362 | 92.7 | inactive |
| USP36 (GeneID 57602) | SID160746387 | -0.354 | 74.8 | -0.436 | 93.8 | inactive |
| FOS (GeneID 2353) | SID160767069 | -0.653 | 68.9 | -1.04 | 101 | inactive |
| FOS (GeneID 2353) | SID160767078 | 0.0622 | 83.1 | -0.42 | 104 | inactive |
| FOS (GeneID 2353) | SID160767089 | 2.95 | 141 | 2.23 | 87.3 | inactive |
| TASOR2 (GeneID 54906) | SID160742467 | -0.0773 | 80.3 | -0.0102 | 90 | inactive |
| TASOR2 (GeneID 54906) | SID160742468 | 0.483 | 91.5 | 0.476 | 90.2 | inactive |
| TASOR2 (GeneID 54906) | SID160742470 | -1.06 | 60.9 | -1.46 | 99.8 | inactive |
| IQCC (GeneID 55721) | SID160744179 | 0.767 | 97.1 | -0.112 | 112 | inactive |
| IQCC (GeneID 55721) | SID160744180 | -0.251 | 76.9 | -0.719 | 104 | inactive |
| IQCC (GeneID 55721) | SID160744182 | -0.181 | 78.3 | -0.885 | 110 | inactive |
| MAT1A (GeneID 4143) | SID160776984 | 0.185 | 85.6 | -0.212 | 101 | inactive |
| MAT1A (GeneID 4143) | SID160776985 | 0.536 | 92.6 | 0.742 | 85.1 | inactive |
| MAT1A (GeneID 4143) | SID160776986 | 1.98 | 121 | 1.4 | 93.6 | inactive |
